Patent US20120100582A1 (DSM IP ASSETS B V, published 2012)
Results are given in words; binding and its absence hold for the method and conditions named. Some binding calls cover weakened binding; strength is not graded here. Values belong to the binder of their own block, whether it stands above or below them.

Key:
Assay in all cases: blue native gel electrophoresis, self-association (homotrimer)
[1] = target: PICE wild-type (pig) (UniProt Q29550)
[2] = target: PLE5 wild-type (pig) (UniProt Q29550)
[3] = target: PLE4 wild-type (pig) (UniProt Q29550)
[4] = target: PLE3 wild-type (pig) (UniProt Q29550)
[5] = target: PLE2 wild-type (pig) (UniProt Q29550)

B1: PICE wild-type (enzyme)
chain: GQPASPPVVDTAQGRVLGKYVSLEGLAQPVAVFLGVPFAKPPLGSLRFAPPQPAEPWSFVKNTTSYPPMCCQDPVAGQMTSDLFTNGKERLIPEFSEDCLYLNIYTPADLTKRGRLPVMVWIHGGGLVVGGASTYDGLALAAHENVVVVAIQYRLGIWGFFSTGDEHSRGNWGHLDQVAALHWVQENIANFGGDTGSVTIFGESAGGESVSVLVLSPLAKNLFHRAISESGVALTAGLVRKDMKAAAKQIAVLAGCKTTTSAVFVHCLRQKSEDELLDLTLKMKFLTLDLHGDPRESHPFLPTVVDGVLLPKMPEEILAEKDFNTVPYIVGINKQEFGWLLPTMMGFPLSEGKLDQKTATSLLWKSFPITNIPEELTPVATDKYLGGTDDPVKKKDLFLDLMGDVVFGVPSVTVARQHRDAGAPTYMYEFQYRPSFSSDKKPKTVIGDHGDEIFSVFGFPLLKGDAPEEEVSLSKTVMKFWANFARSGNPNGEGLPHWPMYDQEEGYLQIGVNTQAAKRLKGEEVAFWNDLLSKEAAKKPPKIKHAEL
- binding [1]: binds

B2: PLE5 wild-type (enzyme)
chain: GQPASPPVVDTAQGRVLGKYVSLEGLAQPVAVFLGVPFAKPPLGSLRFAPPQPAEPWSFVKNTTSYPPMCCQDPVAGQMTSDLFTNGKERLIPEFSEDCLYLNIYTPADLTKRGRLPVMVWIHGGGLVVGGASTYDGLALAAHENVVVVAIQYRLGIWGFFSTGDEHSRGNWGHLDQVAALHWVQENIANFGGDPGSVTIFGESAGGESVSVLVLSPLAKNLFHRAISESGVAFTAGLVRKDMKAAAKQIAVLAGCKTTTSAVFVHCLRQKSEDELLDLTLKMKFFALDLHGDPRESHPFLTTVVDGVLLPKMPEEILAEKDFNTVPYIVGINKQEFGWLLPTMMGFPLSEGKLDQKTATSLLWKSYPIANIPEELTPVATDKYLGGTDDPVKKKDLFLDLMGDVVFGVPSVTVARQHRDAGAPTYMYEFQYRPSFSSDKKPKTVIGDHGDEIFSVFGAPFLRGDAPEEEVSLSKTVMKFWANFARSGNPNGEGLPHWPMYDQEEGYLQIGVNTQAAKRLKGEEVAFWNDLLSKEAAKKPPKIKHAEL
- binding [2]: binds

B3: PLE4 wild-type (enzyme)
chain: GQPASPPVVDTAQGRVLGKYVSLEGLAQPVAVFLGVPFAKPPLGSLRFAPPQPAEPWSFVKNTTSYPPMCCQDPVAGQMTSDLFTNGKERLIPEFSEDCLYLNIYTPADLTKRGRLPVMVWIHGGGLVVGGASTYDGLALAAHENVVVVAIQYRLGIWGFFSTGDEHSRGNWGHLDQVAALHWVQENIANFGGDPGSVTIFGESAGGESVSVLVLSPLAKNLFHRAISESGVAFTAGLVRKDMKAAAKQIAVLAGCKTTTSAVFVHCLRQKSEDELLDLTLKMKPLTLDLHGDPRESHPFLTTVVDGVLLPKMPEEILAEKDFNTVPYIVGINKQEFGWLLPTMMGFPLSEGKLDQKTATSLLWKSYPIANIPEELTPVATDKYLGGTDDPVKKKDLFLDLMGDVVFGVPSVTVARQHRDAGAPTYMYEFQYRPSFSSDKKPKTVIGDHGDEIFSVFGAPFLRGDAPEEEVSLSKTVMKFWANFARSGNPNGEGLPHWPMYDQEEGYLQIGVNTQAAKRLKGEEVAFWNDLLSKEAAKKPPKIKHAEL
- binding [3]: binds

Second part, the binder after the results:

- binding [4]: binds
B4: PLE3 wild-type (enzyme)
chain: GQPASPPVVDTAQGRVLGKYVSLEGLAQPVAVFLGVPFAKPPLGSLRFAPPQPAEPWSFVKNTTSYPPMCCQEPIGGQMLSDLFTNRKERLIPEFSEDCLYLNIYTPADLTKRGRLPVMVWIHGGGLVVGGASTYDGLALAAHENVVVVAIQYRLGIWGFFSTGDEHSRGNWGHLDQVAALHWVQENIANFGGDPGSVTIFGESAGGESVSVLVLSPLAKNLFHRAISESGVAFTAGLVRKDMKAAAKQIAVLAGCKTTTSAVFVHCLRQKSEDELLDLTLKMKPLTLDLHGDPRESHPFLTTVVDGVLLPKMPEEILAEKDFNTVPYIVGINKQEFGWLLPTMMGFPLSEGKLDQKTATSLLWKSYPIANIPEELTPVATDKYLGGTDDPVKKKDLFLDLMGDVVFGVPSVTVARQHRDAGAPTYMYEFQYRPSFSSDKKPKTVIGDHGDEIFSVFGFPLLKGDAPEEEVSLSKTVMKFWANFARSGNPNGEGLPHWPMYDQEEGYLQIGVNTQAAKRLKGEEVAFWNDLLSKEAAKKPPKIKHAEL

- binding [5]: binds
B5: PLE2 wild-type (enzyme)
chain: GQPASPPVVDTAQGRVLGKYVSLEGLAQPVAVFLGVPFAKPPLGSLRFAPPQPAEPWSFVKNTTSYPPMCCQDPVVEQMTSDLFTNGKERLTLEFSEDCLYLNIYTPADLTKRGRLPVMVWIHGGGLVLGGAPMYDGVVLAAHENVVVVAIQYRLGIWGFFSTGDEHSRGNWGHLDQVAALHWVQENIANFGGDPGSVTIFGESAGGESVSVLVLSPLAKNLFHRAISESGVALTVALVRKDMKAAAKQIAVLAGCKTTTSAVFVHCLRQKSEDELLDLTLKMKFLTLDFHGDQRESHPFLPTVVDGVLLPKMPEEILAEKDFNTVPYIVGINKQEFGWLLPTMMGFPLSEGKLDQKTATSLLWKSYPIANIPEELTPVATDKYLGGTDDPVKKKDLFLDLMGDVVFGVPSVTVARQHRDAGAPTYMYEFQYRPSFSSDKKPKTVIGDHGDEIFSVFGAPFLRGDAPEEEVSLSKTVMKFWANFARSGNPNGEGLPHWPMYDQEEGYLQIGVNTQAAKRLKGEEVAFWNDLLSKEAAKKPPKIKHAEL
